Results are given in words; binding and its absence hold for the method and conditions named. Some results given as binding are weak or reduced against the parent protein; the word gives no strength. Sequences can lack the tags named with a protein.
How the values were obtained:
[1] = biological target: T1, Ron (Sema IPT1)-IgG fusion protein (human) (UniProt Q04912); experiment: SPR (BIAcore-3000), Ron (Sema IPT1)-IgG captured by amine-coupled anti-human IgG on a CM5 chip, MSP injected as analyte
T1 sequence (looked up): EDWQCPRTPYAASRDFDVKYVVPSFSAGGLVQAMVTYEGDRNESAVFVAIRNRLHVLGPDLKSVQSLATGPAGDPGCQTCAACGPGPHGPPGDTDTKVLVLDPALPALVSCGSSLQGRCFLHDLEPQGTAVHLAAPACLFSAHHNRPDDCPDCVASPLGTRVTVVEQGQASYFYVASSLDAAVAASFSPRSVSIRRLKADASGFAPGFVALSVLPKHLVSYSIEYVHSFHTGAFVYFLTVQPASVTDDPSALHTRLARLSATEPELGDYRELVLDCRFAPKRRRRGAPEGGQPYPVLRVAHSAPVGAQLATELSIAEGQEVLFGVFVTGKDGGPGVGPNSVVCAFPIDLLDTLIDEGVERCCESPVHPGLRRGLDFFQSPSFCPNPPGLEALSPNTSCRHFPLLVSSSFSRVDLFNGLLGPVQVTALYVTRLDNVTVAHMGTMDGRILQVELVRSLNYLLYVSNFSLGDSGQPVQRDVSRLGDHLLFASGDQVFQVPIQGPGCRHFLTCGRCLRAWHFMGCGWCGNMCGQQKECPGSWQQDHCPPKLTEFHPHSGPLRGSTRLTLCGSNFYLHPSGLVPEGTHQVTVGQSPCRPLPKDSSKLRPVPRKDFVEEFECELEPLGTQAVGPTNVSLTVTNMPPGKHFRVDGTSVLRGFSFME

The chains behind the UniProt entries cited, without tags or fusion partners. Where a name states a change or a piece, a line headed by the entry shows the natural chain unless it says otherwise.
UniProt P26927: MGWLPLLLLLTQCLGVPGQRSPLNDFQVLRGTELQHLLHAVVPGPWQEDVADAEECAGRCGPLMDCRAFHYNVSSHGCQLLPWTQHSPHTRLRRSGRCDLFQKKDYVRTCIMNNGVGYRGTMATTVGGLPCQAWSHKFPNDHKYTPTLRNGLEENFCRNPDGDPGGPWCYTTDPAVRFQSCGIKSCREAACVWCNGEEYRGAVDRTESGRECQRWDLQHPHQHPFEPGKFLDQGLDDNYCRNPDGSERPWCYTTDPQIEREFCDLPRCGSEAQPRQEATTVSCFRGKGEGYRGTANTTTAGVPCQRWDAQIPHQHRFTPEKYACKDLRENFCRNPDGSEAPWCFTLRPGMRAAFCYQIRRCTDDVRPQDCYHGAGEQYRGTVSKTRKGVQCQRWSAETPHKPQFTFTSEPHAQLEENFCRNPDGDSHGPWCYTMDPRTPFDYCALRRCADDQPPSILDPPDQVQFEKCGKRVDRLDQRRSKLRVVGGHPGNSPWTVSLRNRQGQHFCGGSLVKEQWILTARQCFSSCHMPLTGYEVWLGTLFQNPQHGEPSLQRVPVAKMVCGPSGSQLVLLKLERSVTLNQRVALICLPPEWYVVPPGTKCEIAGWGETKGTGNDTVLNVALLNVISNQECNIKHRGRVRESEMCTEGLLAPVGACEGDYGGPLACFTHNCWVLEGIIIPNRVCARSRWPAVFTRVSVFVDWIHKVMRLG

[2] = biological target: T1, Ron (Sema IPT1)-IgG fusion protein (human); experiment: SPR, Ron-Fc captured by an anti-Fc antibody on a CM5 chip, 1:1 binding model
[3] = biological target: T1, Ron (Sema IPT1)-IgG fusion protein (human); experiment: ELISA, Ron (Sema IPT1)-IgG captured on anti-human IgG Fc coated plates, His-tagged MSP detected with anti-His-HRP

Measured: binding

hepsin-activated MSP (recombinant human macrophage-stimulating protein, C672A, cleaved by hepsin at Arg483-Val484) (from UniProt P26927 19-483; P26927 484-711) (ligand)
binds: all assays above

Source: US20120282271A1
